Binding data for two molecules are collected here from article doi:10.1101/2021.02.09.430442 (bioRxiv, 2021).

One assay addresses T1, GST-Stx12 (human) (UniProt Q86Y82).
T1 sequence: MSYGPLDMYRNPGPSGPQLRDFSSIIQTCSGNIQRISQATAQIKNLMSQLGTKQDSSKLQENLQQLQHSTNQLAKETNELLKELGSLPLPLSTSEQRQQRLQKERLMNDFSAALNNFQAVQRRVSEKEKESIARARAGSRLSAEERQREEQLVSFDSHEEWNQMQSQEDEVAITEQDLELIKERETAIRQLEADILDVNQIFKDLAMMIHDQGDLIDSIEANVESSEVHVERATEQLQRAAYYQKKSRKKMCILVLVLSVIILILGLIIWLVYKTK
Briefly: pull-down.

The target of a further assay is T2, GST-VAMP4 (human) (UniProt O75379).
T2 sequence: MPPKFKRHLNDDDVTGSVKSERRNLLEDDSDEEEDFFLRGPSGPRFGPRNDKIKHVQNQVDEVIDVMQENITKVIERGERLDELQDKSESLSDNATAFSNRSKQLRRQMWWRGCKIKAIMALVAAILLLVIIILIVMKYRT
The assay is described as follows: pull-down.

These are yes or no findings as the source states them, for the method shown. For some assays here: Binding seen in cells or lysates may run through a third protein. Some results given as binding are weak or reduced against the parent protein; the word gives no strength. Sequences can lack the tags named with a protein.

B1: endogenous SNARE protein Stx6 (protein, UniProt Q9JKK1 1-255)
chain: MSMEDPFFVVKGEVQKAVNTAQGLFQRWTELLQGPSAATREEIDWTTNELRNNLRSIEWDLEDLDETISIVEANPRKFNLDATELSIRKAFITSTRQIVRDMKDQMSASSVQALAERKNRQALLGDSSSQSWNAGVADRYGRLDRELQLANSHFIEEQQAQQQLIVEQQDEQLELVSGSIGVLKNMSQRIGGELEEQAVMLDDFSHELESTQSRLDNVMKKLAKVSHMTSDRRQWCAIAILFAVLVVVLILFLVL
On to B1, for which the binding entry in the assay with GST-Stx12 (human) is “binds”.

B2: Recombinant human Syntaxin12 (protein, UniProt Q86Y82 1-276)
chain: MSYGPLDMYRNPGPSGPQLRDFSSIIQTCSGNIQRISQATAQIKNLMSQLGTKQDSSKLQENLQQLQHSTNQLAKETNELLKELGSLPLPLSTSEQRQQRLQKERLMNDFSAALNNFQAVQRRVSEKEKESIARARAGSRLSAEERQREEQLVSFDSHEEWNQMQSQEDEVAITEQDLELIKERETAIRQLEADILDVNQIFKDLAMMIHDQGDLIDSIEANVESSEVHVERATEQLQRAAYYQKKSRKKMCILVLVLSVIILILGLIIWLVYKTK
For B2, in the assay with GST-VAMP4 (human), the binding entry is given as “binds”.
